Literature values as cited in US20090029367A1 (AstraZeneca AB, priority 2005, published 2009).
For at least one compound, name, drawing or mass did not settle the structure.

Columns and labels:
thrombin = thrombin (Homo sapiens, UniProt P00734); conditions: prodrug itself; cited from earlier work
trypsin = trypsin (Homo sapiens, UniProt P07477); conditions: prodrug itself; cited from earlier work

## CCOC(=O)CN[C@@H](C(=O)N1CC[C@H]1C(=O)NCc1ccc(/C(N)=N\O)cc1)C1CCCCC1 [ximelagatran, EtOOC—CH2—(R)Cgl-Aze-Pab-OH]
thrombin
  activity per se to thrombin: inactive per se
trypsin
  activity per se to trypsin: inactive per se
